Assay results published in PMC4726324 (Scientific Reports, 2016).

Assay: general procedure: Fmoc solid-phase peptide synthesis; 2-chloro-chlorotrityl resin; HBTU/DIPEA
Conditions: coupling step

cyclo[G^23FF-Nva(δN3)-TP-Prg-T^30]-insulin
step yield: 9.8%
